From patent publication US20240218023A1 (MICROBIO (SHANGHAI) CO., LTD., priority 2021, published 2024)
Strings that start with PEPTIDE1 are HELM notation: dots part the residues, brackets hold end groups and non-standard residues.

Assay: general procedure: Fmoc solid-phase peptide synthesis; CTC resin
Settings: for conjugation yield / final HPLC purity: conjugation step; for final HPLC purity: 214 nm

Substance	cyclisation yield (cyclisation step)	step yield (late stage modification step)	conjugation yield	final HPLC purity
Benzyl (6-(3-((2S,5S,11S,17S)-5,11,17-tris(4-((tert-butoxycarbonyl)amino)butyl)-3,6,9,12,15,18-hexaoxo-1,4,7,10,13,16-hexaazacyclooctadecan-2-yl)propanamido)hexyl)carbamate	62.7%			
Benzyl (6-(3-((2S,5S,11S,17S)-5,11,17-tris(4-aminobutyl)-3,6,9,12,15,18-hexaoxo-1,4,7,10,13,16-hexaazacyclooctadecan-2-yl)propanamido)hexyl)carbamate		98.8%		
PEPTIDE1{K.E.K.G.K.G}|CHEM1{[Gal3acyl]}|CHEM2{[Gal3acyl]}|CHEM3{[Gal3acyl]}|CHEM4{[HDA5FAM]}$PEPTIDE1,PEPTIDE1,1:R1-6:R2|PEPTIDE1,CHEM1,1:R3-1:R2|PEPTIDE1,CHEM2,3:R3-1:R2|PEPTIDE1,CHEM3,5:R3-1:R2|PEPTIDE1,CHEM4,2:R3-1:R1$$$V2.0			38%	97.57%
PEPTIDE1{[dK].[dE].[dK].G.[dK].G}|CHEM1{[Gal3acyl]}|CHEM2{[Gal3acyl]}|CHEM3{[Gal3acyl]}|CHEM4{[HDA5FAM]}$PEPTIDE1,PEPTIDE1,1:R1-6:R2|PEPTIDE1,CHEM1,1:R3-1:R2|PEPTIDE1,CHEM2,3:R3-1:R2|PEPTIDE1,CHEM3,5:R3-1:R2|PEPTIDE1,CHEM4,2:R3-1:R1$$$V2.0			54%	98.15%
